Experimental data from paper PMC8254828.
No constants are given. Whether binding was seen depends on the method and setting. In cells and extracts the contact can be indirect. Some entries that bind do so weakly or less than the wild type. Tags and fused reporters may be left off the sequences shown.

Sequences of proteins named here, by UniProt entry; tags and fusion partners are left off. A change or cut given only in a name is not applied to a line headed by its entry. A line that says so, or that is headed by a name, gives the form on record, which may keep a tag or linker. Residues count along the entry.
UniProt G5E8K5: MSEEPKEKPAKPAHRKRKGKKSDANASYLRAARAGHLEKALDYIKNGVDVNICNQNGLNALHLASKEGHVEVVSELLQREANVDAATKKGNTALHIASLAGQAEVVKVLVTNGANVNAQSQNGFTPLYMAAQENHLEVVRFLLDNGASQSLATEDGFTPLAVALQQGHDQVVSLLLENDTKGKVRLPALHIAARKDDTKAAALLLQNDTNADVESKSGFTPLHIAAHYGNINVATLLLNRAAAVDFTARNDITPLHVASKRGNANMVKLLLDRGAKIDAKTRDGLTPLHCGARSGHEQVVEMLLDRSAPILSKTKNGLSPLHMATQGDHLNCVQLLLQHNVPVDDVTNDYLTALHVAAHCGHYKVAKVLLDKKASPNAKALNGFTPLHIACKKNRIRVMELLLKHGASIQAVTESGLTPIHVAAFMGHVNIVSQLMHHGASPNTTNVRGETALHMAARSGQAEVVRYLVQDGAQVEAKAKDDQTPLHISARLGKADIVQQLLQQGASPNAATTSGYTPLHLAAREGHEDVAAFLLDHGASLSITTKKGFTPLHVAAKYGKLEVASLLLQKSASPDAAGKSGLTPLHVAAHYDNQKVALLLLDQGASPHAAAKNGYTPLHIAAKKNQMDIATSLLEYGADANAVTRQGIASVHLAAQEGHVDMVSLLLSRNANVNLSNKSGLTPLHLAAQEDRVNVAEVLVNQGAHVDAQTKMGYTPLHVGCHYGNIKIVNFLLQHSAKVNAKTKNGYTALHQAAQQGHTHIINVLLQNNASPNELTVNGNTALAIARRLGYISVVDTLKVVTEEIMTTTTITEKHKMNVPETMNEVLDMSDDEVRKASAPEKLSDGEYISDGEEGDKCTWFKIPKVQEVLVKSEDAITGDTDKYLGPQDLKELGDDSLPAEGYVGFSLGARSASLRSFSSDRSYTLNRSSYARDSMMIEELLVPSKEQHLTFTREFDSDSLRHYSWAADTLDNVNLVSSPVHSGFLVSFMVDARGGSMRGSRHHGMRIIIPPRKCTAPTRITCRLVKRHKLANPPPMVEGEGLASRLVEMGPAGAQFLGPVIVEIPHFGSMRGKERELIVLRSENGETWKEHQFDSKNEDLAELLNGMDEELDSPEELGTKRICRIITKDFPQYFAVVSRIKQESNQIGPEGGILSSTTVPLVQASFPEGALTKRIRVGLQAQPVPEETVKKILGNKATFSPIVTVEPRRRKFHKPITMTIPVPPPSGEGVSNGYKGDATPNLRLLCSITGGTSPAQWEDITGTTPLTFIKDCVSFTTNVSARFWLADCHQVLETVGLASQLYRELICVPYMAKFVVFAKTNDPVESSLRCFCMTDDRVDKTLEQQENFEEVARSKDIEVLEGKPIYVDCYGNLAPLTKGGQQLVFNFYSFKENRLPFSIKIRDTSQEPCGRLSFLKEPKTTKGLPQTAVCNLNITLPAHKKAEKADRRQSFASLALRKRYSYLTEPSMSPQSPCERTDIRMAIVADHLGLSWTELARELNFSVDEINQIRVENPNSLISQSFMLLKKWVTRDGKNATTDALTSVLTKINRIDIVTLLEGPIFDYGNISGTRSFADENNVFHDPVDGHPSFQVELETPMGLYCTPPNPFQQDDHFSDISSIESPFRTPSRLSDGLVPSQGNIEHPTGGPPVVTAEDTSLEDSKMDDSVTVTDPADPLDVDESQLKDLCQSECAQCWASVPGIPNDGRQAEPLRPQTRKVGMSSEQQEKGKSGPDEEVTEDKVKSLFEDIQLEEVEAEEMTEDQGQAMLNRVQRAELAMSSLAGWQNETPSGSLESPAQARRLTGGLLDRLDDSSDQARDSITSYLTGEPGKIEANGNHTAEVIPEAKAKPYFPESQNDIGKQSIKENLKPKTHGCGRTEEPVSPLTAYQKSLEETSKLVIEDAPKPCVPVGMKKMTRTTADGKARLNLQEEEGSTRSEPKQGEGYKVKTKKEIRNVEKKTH
HA-tagged ankyrin-G 1–807 (ankyrin-repeat domain): residues 1-807 of G5E8K5
HA-tagged ankyrin-G 1476–1961 (regulatory domain): residues 1476-1961 of G5E8K5

Columns and labels:
[1] = molecular target: 3XHA-ankyrin-G P1606L (UniProt G5E8K5); experiment: proximity ligation; COS7 cells transfected with 3XFlag-Homer1c and 3XHA-ankyrin-G (WT or point mutants), fixed 24 h after transfection; Duolink In Situ FarRed; confocal images
[2] = molecular target: 3XHA-ankyrin-G F1609R (UniProt G5E8K5); experiment: as above
[3] = molecular target: 3XHA-ankyrin-G (ankyrin-G 190, wild type) (UniProt G5E8K5); experiment: as above
[4] = molecular target: 3XHA-ankyrin-G P1606L (UniProt G5E8K5); experiment: co-IP; HEK293T cells transfected with 3XHA-ankyrin-G (full length, fragments or point mutants) and 3XFlag-Homer1c; lysate immunoprecipitated, blots with HA or Flag antibody
[5] = molecular target: HA-tagged ankyrin-G 1476–1961 (regulatory domain) (UniProt G5E8K5); experiment: as above
[6] = molecular target: 3XHA-ankyrin-G F1609R (UniProt G5E8K5); experiment: as above
[7] = molecular target: 3XHA-ankyrin-G (ankyrin-G 190, wild type) (UniProt G5E8K5); experiment: as above
[8] = molecular target: HA-tagged ankyrin-G 1–807 (ankyrin-repeat domain) (UniProt G5E8K5); experiment: as above

B1: 3XFlag-Homer1c (protein, UniProt Q9Z2Y3 1-366)
chain: MGEQPIFSTRAHVFQIDPNTKKNWVPTSKHAVTVSYFYDSTRNVYRIISLDGSKAIINSTITPNMTFTKTSQKFGQWADSRANTVYGLGFSSEHHLSKFAEKFQEFKEAARLAKEKSQEKMELTSTPSQESAGGDLQSPLTPESINGTDDERTPDVTQNSEPRAEPTQNALPFPHSAGDRTQALSHASSAISKHWEAELATLKGNNAKLTAALLESTANVKQWKQQLAAYQEEAERLHKRVTELECVSSQANAVHSHKTELNQTVQELEETLKVKEEEIERLKQEIDNARELQEQRDSLTQKLQEVEIRNKDLEGQLSDLEQRLEKSQNEQEAFRSNLKTLLEILDGKIFELTELRDNLAKLLECS
binding [1]: binds | binding [2]: binds | binding [3]: binds | binding [4]: binds | binding [5]: binds | binding [6]: binds | binding [7]: binds | binding [8]: binds weakly
